# According to PubChem BioAssay AID1259354 (Paczesny and Yang Labs, IUPUI and University of Michigan, 2018):
# Sequences of proteins named here, by UniProt entry; tags and fusion partners are left off. A change or cut given only in a name is not applied to a line headed by its entry.
# UniProt Q01638: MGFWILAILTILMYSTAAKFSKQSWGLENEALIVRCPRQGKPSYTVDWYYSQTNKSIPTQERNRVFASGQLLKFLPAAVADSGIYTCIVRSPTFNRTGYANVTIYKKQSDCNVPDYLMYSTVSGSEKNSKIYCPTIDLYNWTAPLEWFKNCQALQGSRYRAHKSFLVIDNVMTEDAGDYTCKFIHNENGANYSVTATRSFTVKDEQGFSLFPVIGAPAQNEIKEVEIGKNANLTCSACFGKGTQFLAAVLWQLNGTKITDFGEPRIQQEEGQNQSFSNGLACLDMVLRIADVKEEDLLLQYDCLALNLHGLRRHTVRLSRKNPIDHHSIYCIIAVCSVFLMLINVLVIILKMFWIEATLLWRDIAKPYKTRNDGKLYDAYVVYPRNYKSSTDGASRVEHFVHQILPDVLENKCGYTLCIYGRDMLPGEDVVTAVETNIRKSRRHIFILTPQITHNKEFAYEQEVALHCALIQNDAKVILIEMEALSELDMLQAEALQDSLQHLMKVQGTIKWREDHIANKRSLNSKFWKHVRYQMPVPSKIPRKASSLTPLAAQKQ
# Among all 78,000 compounds or so, about 1,800 (2.3%) were called active. This list was built around the results that the source calls inconclusive (neither active nor inactive); the mix of calls is not that of the screen. Rule as the data show it: active = inhibition above about 30%; inconclusive = mostly about 10% to 28%; inactive = weaker than that.
# Biological target: Interleukin-1 receptor-like 1 (Homo sapiens) (UniProt Q01638)
# Experiment: blocks human ST2 binding to IL-33, primary screen, biochemical, AlphaLISA (AID 1259354)
# Conditions: AlphaLISA ST2-Fc/biotin-IL-33 interaction, 1 h; at 17 µM, stronger effect = higher value
row,Structure (SMILES),inhibition
1,CCc1c(C)sc(NC(=O)c2cc(-c3cccs3)on2)c1C#N,inconclusive: 14%
2,CC(C)c1nnc(NC(=O)c2ccc(Br)cc2)s1,inactive
3,COCCNC(=O)c1c(NC(=O)c2cccc([N+](=O)[O-])c2)sc2c1CCCC2,inconclusive: 12%
4,COc1ccccc1OC(C)c1nc(Cc2cccc(C(F)(F)F)c2)no1 (stereo not drawn),inconclusive: 14%
5,COc1ccc(/C=C2\SC(=O)N(c3ccccc3OC)C2=O)cc1,inconclusive: 28%
6,COc1ccc(-c2nc3ccc(Br)cc3c(=O)o2)cc1OC,inconclusive: 15%
7,CSc1cccc(NC2=NC3CS(=O)(=O)CC3S2)c1 (stereo not drawn),inactive
8,Brc1ccc2nc(-c3ccccn3)c(Nc3ccc4c(c3)OCO4)n2c1,inconclusive: 19%
9,O=C(Nc1nccs1)C(c1ccccc1)c1ccccc1,inconclusive: 10%
10,COc1cccc(N=c2c([N+](=O)[O-])nn(-c3ccccc3)n2O)c1,inconclusive: 16%
11,COc1cccc(C(=O)Nc2cc(C)ccc2OCc2cc(=O)n3oc(C)cc3n2)c1,inactive
12,COc1ccc(C(=O)c2c[nH]c3ccc(Cl)cc3c2=O)cc1,inconclusive: 23%
13,CCCCSc1nnc(-c2ccccc2N)c(=O)[nH]1,inactive
14,CN1CCCc2c(O)cccc21,inconclusive: 12%
15,CC(C)(NC(=O)c1cccs1)C(=O)N1CCC1c1ccc(F)cc1 (stereo not drawn),inconclusive: 20%
16,COc1ccc(Cl)cc1NC(=O)C1C2C=CC(O2)C1C(=O)O (stereo not drawn),inconclusive: 12%
17,CC1=C(C(=O)Nc2ccccc2F)C(c2ccsc2)C2=C(CC(C)(C)CC2=O)N1 (stereo not drawn),inconclusive: 24%
18,COc1ccc(C2=Nn3c(nnc3-c3ccccc3Br)SC2)cc1,inactive
19,Cn1ccnc1CCC1CCCCN1C(=O)NCc1cccc(F)c1 (stereo not drawn),inactive
20,Cc1cc(C)n(CCc2c(-c3ccccc3)ncn2C(C)Cn2cccn2)n1 (stereo not drawn),inconclusive: 13%
21,O=C(c1c[nH]c2ccc(S(=O)(=O)Nc3cccc(C(F)(F)F)c3)cc2c1=O)N1CCCC1,inactive
22,Cc1n[nH]c(C)c1CCCN(C)C(=O)CC1C(=O)NCCN1C1CCCC1 (stereo not drawn),inconclusive: 16%
23,O=C(CCC1CCN(Cc2cccc(Oc3ccccc3)c2)CC1)N1CCOCC1,inconclusive: 10%
24,CC1(C(=O)NC2CCCCCC2)CCC(=O)N1Cc1ccc(F)cc1Cl (stereo not drawn),inconclusive: 11%

# Gathered by group: the compounds so far containing a nitro group on carbon
row,Structure (SMILES),inhibition
3,COCCNC(=O)c1c(NC(=O)c2cccc([N+](=O)[O-])c2)sc2c1CCCC2,inconclusive: 12%
10,COc1cccc(N=c2c([N+](=O)[O-])nn(-c3ccccc3)n2O)c1,inconclusive: 16%

# (further entries)

row,Structure (SMILES),inhibition
1,COc1ccc(C(=O)N(c2ccc(C(C)C)cc2)C2C=CS(=O)(=O)C2)cc1OC (stereo not drawn),inactive
2,O=S(=O)(Cc1noc([C@@H]2C[C@@H](O)CN2Cc2ccc(-c3ccccn3)cc2)n1)c1ccc(F)cc1,inactive
3,C[C@H](O)CNC(=O)c1cc(Cn2ccc3ccccc32)[nH]n1,inconclusive: 14%
4,C(=C\c1ccccc1)/CN1CCN(c2ccccn2)CC1,inconclusive: 19%
5,COc1ccc(-n2c(O)c(C=Nc3ccc(C(F)(F)F)cc3)c3ccccc3c2=O)cc1,inconclusive: 17%
6,Cc1nnc(NC(=O)NCc2cccc(CN3CCCC3)c2)s1,inconclusive: 12%
7,CN(Cc1cnc(N2CCOCC2)s1)Cc1ccnc2ccccc12,inconclusive: 14%
8,COc1ccc(NC(=O)NC2CC(=O)N(CC(C)(C)C)C2)c(OC)c1 (stereo not drawn),inconclusive: 11%
9,CCCCC1CN(CCNC(=O)c2ccc(N3CCN(C)CC3)cc2)Cc2ccccc2O1 (stereo not drawn),inconclusive: 13%
10,Cc1ccc2oc(C(=O)OC(CN(C)C)CN(C)C)cc2c1,inactive
11,CCN1C(=O)c2cccc3c(S(=O)(=O)N(CCO)CCO)ccc1c23,inactive
12,O=C(CSCc1cccc(Br)c1)NCc1ccccc1,inactive
13,N#Cc1c(N)nc(SCC(=O)c2ccc(Cl)cc2)c(C#N)c1-c1ccco1,inconclusive: 27%
14,COCCn1c(CNC(=O)c2cc(OC)c(OC)c(OC)c2)nc2cccnc21,inconclusive: 10%
15,COc1ccc(-c2noc([C@@H]3C[C@@H](O)CN3C(C)C)n2)cc1,inconclusive: 13%
16,O=S(=O)(c1cccc2cccnc12)N1CC=C(c2ccccc2)CC1,inconclusive: 11%
17,COc1ccc(CCC(=O)N2CCN(S(=O)(=O)c3cc4c5c(c3)CCN5C(=O)CC4)CC2)cc1,inconclusive: 15%
18,O=C(c1ccco1)N1CCN(CC(=O)N2CCCc3c2c(=O)oc2ccc(O)cc32)CC1,inconclusive: 22%
19,Nc1cc(=O)[nH]c(SCc2ccccc2)n1,inconclusive: 16%
20,CCN(CC)C(=O)Cn1cnc2sc(C(=O)Nc3ccc(F)cc3F)c(C)c2c1=O,inconclusive: 13%
21,Cn1c(=O)n(Cc2ccccc2F)c(=O)c2c1nc1n2CCN1c1ccccc1,inactive
22,COc1cc2c(cc1C(=O)N1Cc3cnc(C(C)(C)C)nc3C1)CCC2,inconclusive: 14%
23,NC(=O)CO[C@@H]1CO[C@H]2[C@@H]1OC[C@@H]2NS(=O)(=O)Cc1ccccc1,inconclusive: 24%
24,COc1ccc2cc3cc(C(=O)Nc4ccccc4F)oc3nc2c1,inconclusive: 11%
